Results as given in PubChem BioAssay AID2685 (National Center for Advancing Translational Sciences (NCATS), 2010).
The list shows a part of the results. Shown are side measurements of this screen, not its main read-out; they come without a call. Most of these compounds were active or inconclusive in the main read-out, so they are no random draw. Potencies come from curve fits of mixed quality, noted in brackets.

Experiment: qHTS Assay for Lipid Storage Modulators in Drosophila S3 Cells;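 for cell number change: cells counted by Cell Tracker Red CMTPX staining in the red channel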
Details: BODIPY lipid droplet fluorescence, 18-24 h; for cell number change: measured here: cell count max response, cells fed with added oleic acid
Summary of the method: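 Drosophila S3 cells got compounds at several concentrations plus oleic acid (400 uM solution). Laser-scanning cytometry with 488 nm excitation read lipid droplets at 500-530 nm and cells at 575-640 nm. Percent activity was relative to 20 uM Triacsin C.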

[1] = measured here: lipid fluorescence (Fed channel) AC50, cells fed with added oleic acid
[2] = measured here: cell number channel AC50, cells fed with added oleic acid

Compound	cell number change	AC50 [1]	AC50 [2]
Cc1ccc(N(CC(=O)N2CCN(c3ccccc3F)CC2)S(=O)(=O)c2c(C)noc2C)cc1	15.4%	29.1 µM [rising, single point]	
COc1ccc(Cc2noc(-c3ccc(C)cc3)n2)cc1			2.59 µM [rising, partial curve]
CCn1c(SCC(=O)Nc2cc(Cl)ccc2OC)nnc1C1CC1	21%		
O=C(N/N=C/c1ccccc1OC(=O)c1ccc2c(c1)OCO2)c1cccc(F)c1	28.4%	1.84 µM [rising, partial curve, poor fit]	
CCCN(CCC)c1nc(Cl)nc(NCCN2CCOCC2)n1	-46.4%	3.66 µM [rising, single point]	
Cc1nn(Cc2ccccc2)c(C)c1C(=O)N1CCN(S(=O)(=O)/C=C/c2ccccc2)CC1	-3.01%	0.517 µM [rising, single point]	
CCCOc1cccc(C2C(C(=O)c3ccco3)=C(O)C(=O)N2CCN(CC)CC)c1 (stereo not given)	-1.85%	0.58 µM [rising, single point]	
CCOc1ccc(C(=O)CCNC(Cc2cnc[nH]2)C(=O)O)cc1 (stereo not given)	-33.3%	29.1 µM [falling, single point]	
Cc1csc(C(C)N(C)C(=O)c2ccc(OC3CCN(Cc4ccccn4)CC3)cc2)n1 (stereo not given)	-9.83%	29.1 µM [falling, single point]	
CCN1C(=O)CSc2ccc(C(=O)NCc3ccc(OC)cc3)cc21	93%		29.1 µM [rising, single point]
Nc1nc(Sc2ccc([N+](=O)[O-])cc2[N+](=O)[O-])n[nH]1	1.03%	23.1 µM [falling, single point]	
COc1ccc(CCN(Cc2cccs2)S(=O)(=O)c2ccc(-n3cnnn3)c(OC)c2)cc1OC		0.259 µM [rising, partial curve, poor fit]	
Cc1ccc2nc(N(CCCN(C)C)C(=O)c3ccc(S(=O)(=O)N4CCc5ccccc5C4)cc3)sc2c1	-40.7%	16.4 µM [falling, partial curve]	13 µM [falling, partial curve, poor fit]
CC(C)OC(=O)CSc1nnc(Cc2ccccc2)n1C	0.489%	0.82 µM [falling, full curve, poor fit]	
Cc1ccc(S(=O)(=O)N2CCCCC2)cc1NC(=O)COC(=O)c1ccc2c(c1)OCO2	23.5%	0.0517 µM [rising, full curve]	
COc1ccc(OC)c(NC(=O)Nc2cc(NC(=O)Nc3cc(OC)ccc3OC)c(C)nc2C)c1	-10.3%	9.2 µM [rising, partial curve, poor fit]	
Cc1ccc(-n2ccc(=O)c(-c3ccnc(SCc4cccc(Cl)c4)n3)n2)cc1	-38.1%	2.91 µM [falling, partial curve, poor fit]	25.9 µM [falling, single point]
O=C(CN1CCN(S(=O)(=O)c2cc(C(F)(F)F)ccc2Cl)CC1)N1CCc2ccccc2C1	8.14%	6.51 µM [rising, single point]	
Cc1nonc1C1CCCN1C(=O)c1cc(COc2cccc(C(F)(F)F)c2)on1 (stereo not given)		6.51 µM [rising, single point]	
CC1CCN(C(=O)CSc2nnc(-c3cccnc3)n2C2CCCCC2)CC1	8.47%	1.46 µM [rising, partial curve]	

Compound	cell number change	AC50 [1]	AC50 [2]
O=C(CCC(=O)N1CCN(Cc2ccc(F)cc2)CC1)Nc1nnc(C2CCCCC2)s1	19.6%	29.1 µM [rising, single point]	
CN(C(=O)COC(=O)CNC(=O)c1sc2ccccc2c1Cl)c1ccccc1	47.6%	6.51 µM [rising, single point]	20.6 µM [rising, single point]
COC(=O)/C(=C\c1ccc(O)cc1)c1nc2ccccc2[nH]1			6.51 µM [rising, single point]
CC1CCN(C(=O)CCc2nnc3ccc(NCc4ccco4)nn23)CC1	-16.1%	0.731 µM [falling, single point]	
COc1ccccc1C(=O)N1CCC(C(=O)c2ccc(F)cc2)CC1	18.9%	1.16 µM [rising, partial curve]	
Cn1c(=O)c(=O)n(C)c2cc(S(=O)(=O)N3CCCC3C(=O)Nc3ccccc3F)ccc21 (stereo not given)	1.44%		0.00517 µM [rising, full curve, poor fit]
CCCn1nc(C(=O)Nc2cccc(C(=O)OC)c2)c2ccccc2c1=O	-21.1%	0.0731 µM [rising, full curve]	
CCC(NS(=O)(=O)c1ccc(C)cc1)C(=O)Nc1ccc(NC(C)=O)cc1 (stereo not given)	9.14%	0.82 µM [rising, partial curve]	
Cc1ccc(F)cc1NC(=O)c1ccc2c(c1)OCO2	136%		25.9 µM [rising, single point]
COc1ccc(OC)c(NS(=O)(=O)c2ccc3c(c2)CCC(=O)N3)c1	29.2%		4.61 µM [rising, full curve, poor fit]
CC(=O)c1ccc(NC(=O)Cc2cccs2)cc1	8.21%	3.26 µM [rising, single point]	
O=C(NCC1CCCO1)c1ccc(C(=O)NCC2CCCO2)cc1 (stereo not given)	-88%	18.4 µM [falling, single point]	18.4 µM [falling, single point]
O=C(NCc1ccc(Cl)cc1)c1ccc2c(=O)n(CC3CCCO3)c(=S)[nH]c2c1 (stereo not given)	18.9%		
COc1ccccc1NS(=O)(=O)c1ccc(Cl)cc1	-30.7%		14.6 µM [falling, partial curve, poor fit]
COCCCn1c(=O)c2sccc2n2c(CCCC(=O)NCc3ccc(OC)cc3)nnc12	-2.29%	3.26 µM [rising, single point]	
COC(=O)c1cccc(COC(=O)CNC(=O)c2ccco2)c1	10.2%	0.206 µM [falling, full curve, poor fit]	
O=C(CCNC(=O)c1ccccc1Cl)NC1=NCCS1	-25.8%		
COc1ccc(S(=O)(=O)N2CCOCC2)cc1NC(=O)Cc1ccc2c(c1)OCCO2	-22%	29.1 µM [falling, single point]	
NC(=O)CSc1oc(-c2ccco2)nc1S(=O)(=O)c1ccc(Cl)cc1	22.2%	3.66 µM [falling, full curve, poor fit]	
CCCOc1ccc(N2C(=O)CC(N(Cc3ccc(S(N)(=O)=O)cc3)C(=O)CC)C2=O)cc1 (stereo not given)	-18.7%		

Compound	cell number change	AC50 [1]	AC50 [2]
O=[N+]([O-])c1ccc(CSC2=NCCN2)cc1	12.9%	0.82 µM [rising, single point]	
COc1ccc(N(C)C(=O)c2sc(Cl)nc2C)cc1	-9.89%		
COc1ccc(NC(=O)c2ccc(Cl)nc2)cc1S(=O)(=O)N1CCCCC1	-20.3%		
COc1ccc(C2CC(=O)C(C=NCC(C)C)=C(O)C2)cc1 (stereo not given)	22.1%	29.1 µM [rising, single point]	0.13 µM [rising, full curve, poor fit]
COc1cc(OC)cc(-n2nnnc2SCC(=O)Nc2nc3c(s2)CCCC3)c1		4.11 µM [rising, partial curve]	
COc1ccccc1-c1noc(CCC(=O)Nc2cc(C(F)(F)F)ccc2Cl)n1	-13.6%	0.366 µM [rising, partial curve, poor fit]	
COc1ccccc1N1C(=O)c2cccc3c(N(C)CCO)ccc(c23)C1=O	-8.47%	16.4 µM [falling, single point]	
O=C(c1ccc(Cl)nc1)N1CCN(S(=O)(=O)c2ccc3c(c2)OCCO3)CC1	-14.4%		
O=C(NC(NNc1ccc([N+](=O)[O-])cc1)(C(F)(F)F)C(F)(F)F)c1ccc(F)cc1	10%		
CCOc1ccc(-n2c(C)nc3cc(C(=O)NCC4CCCO4)ccc32)cc1 (stereo not given)		6.51 µM [rising, single point]	
OC(COc1ccccc1)CN1CCN(C(c2ccccc2)c2ccccc2)CC1 (stereo not given)	-39.2%	6.51 µM [falling, single point]	14.6 µM [falling, partial curve, poor fit]
O=C1COc2ccc(C(=O)CSc3nnnn3-c3ccccc3)cc2N1			6.51 µM [rising, single point]
c1ccc(-c2nc(-c3cccnc3)n[nH]2)cc1	8.62%	0.411 µM [rising, full curve, poor fit]	
O=c1c2ccccc2cnn1Cc1n[nH]c(=S)n1-c1cc(Cl)cc(Cl)c1	-16.4%	0.13 µM [rising, partial curve, poor fit]	6.51 µM [rising, single point]
CCOc1ccc(N(CC(=O)N2CCN(c3ccccc3OC)CC2)S(=O)(=O)c2ccc(C)cc2)cc1	-37.3%		14.6 µM [falling, single point]
O=C(O)c1ccc(Sc2ccccn2)c([N+](=O)[O-])c1	-30.7%		6.51 µM [falling, single point]
CCOC(=O)[C@@H](CCc1ccccc1)N[C@H](C)C(=O)N1[C@H](C(=O)O)C[C@@H]2CCC[C@@H]21	8.99%		
COc1cccc(N2CCN(CC(=O)NC(=O)NC3CCCCC3)CC2)c1	-9.09%		
O=C(NCCN1CCOCC1)c1cc(-c2cccc(Cl)c2)on1	10.4%	23.1 µM [rising, single point]	
CC(C)[C@H](CO)Nc1nc(Nc2ccc(Cl)c(C(=O)O)c2)c2ncn(C(C)C)c2n1	-5.73%	6.51 µM [falling, single point]	

By substructure, the entries above with a CF3 group (4)
Compound	cell number change	AC50 [1]	AC50 [2]
O=C(CN1CCN(S(=O)(=O)c2cc(C(F)(F)F)ccc2Cl)CC1)N1CCc2ccccc2C1	8.14%	6.51 µM [rising, single point]	
Cc1nonc1C1CCCN1C(=O)c1cc(COc2cccc(C(F)(F)F)c2)on1 (stereo not given)		6.51 µM [rising, single point]	
COc1ccccc1-c1noc(CCC(=O)Nc2cc(C(F)(F)F)ccc2Cl)n1	-13.6%	0.366 µM [rising, partial curve, poor fit]	
O=C(NC(NNc1ccc([N+](=O)[O-])cc1)(C(F)(F)F)C(F)(F)F)c1ccc(F)cc1	10%		
